Values of other authors as cited in US6475746B1, “Method of obtaining a composition comprising a 5-HT1D selective compound” (Synaptic Pharmaceutical Corporation, priority 1990, dated 2002).

Biological target: Human Native Membranes 5-HT1D
Details: literature values (footnotes a, b, c), read-out: Estimated equilibrium dissociation constants (Ki values); cited from earlier work

SMILES | Ki
CC[C@@H](CO)NC(=O)[C@@H]1C=C2c3cccc4c3c(cn4C)C[C@H]2N(C)C1 [Methysergide] | 14 nM
O=C(CCCN1CCC2(CC1)C(=O)NCN2c1ccccc1)c1ccc(F)cc1 [Spiperone] | > 10000 nM
